Test results published in patent US20030199017A1, “Method for releasing a product comprising chemical oxidation, method for detecting said product and uses thereof” (Proteus, priority 2000, published 2003).

Experiments:
[1] = detection of the release of a volatile compound (perception of odor); settings: 10 mg product mixed with 10 mg NaIO4 and 1 g MgSO4, left in air
[2] = stability of the substrates / oxidation by periodate in the presence of BSA; type: physicochemical; settings: 100 μm of substrate, 1 mmol of sodium periodate, 2 mg/ml of BSA, borate buffer pH 8.8
Description: The oxidation of 1,2 diols and amino alcohols by periodate in an aqueous medium is a reaction that is well known to one skilled in the art. This reaction provides a purely chemical alternative for the conversion of alcohols into carbonyl groups in aqueous medium with a high chemoselectivity in the presence of other functional groups.
The substrates acetates 1, amide 5 and epoxide 6 are stable in the presence of periodate and BSA […] the aqueous media. […] Under optimized reaction conditions using 100 μm of substrate, 1 mmol of sodium periodate, 2 mg/ml of BSA in a borate buffer with a pH of 8.8, diol 2 is transformed into umbelliferone with a yield of 72% without observable secondary reactions. […] The oxidation of amino alcohol 6 takes place with a yield of 85% under the same conditions.

| SMILES | perception of perfumes (odor) ([1]; Period: 1 month) | perception of perfumes (odor) ([1]; Period: 5 months) | perception of perfumes (odor) ([1]; Period: 5 days) | perception of perfumes (odor) ([1]; Period: day) | oxidation yield (transformed into umbelliferone) [2] |
| --- | --- | --- | --- | --- | --- |
| CCCC(O)CO (stereo not shown) [1,2-Pentanediol, 1,2-pentanediol] | 2 or 3 ml of water | A larger amount of | 2 or 3 drops of | A simple stirring |  |
| OC(c1ccccc1)C(O)c1ccccc1 (stereo not shown) [Hydrobenzoin, hydrobenzoin] | 2 or 3 ml of water | idem | 2 or 3 drops of | A simple stirring of |  |
| NCC(O)CCOc1ccc2ccc(=O)oc2c1 (stereo not shown) [amino alcohol 6, 1-Amino-4-(7-coumarinyloxy)-2-butanol] |  |  |  |  | 85% |
| O=c1ccc2ccc(OCC[C@H](O)CO)cc2o1 [diol 2, (S)-4-(7-coumarinyloxy)-1,2-butanediol] |  |  |  |  | 72% |
